{"source": "PubChem BioAssay AID2685", "about": "(National Center for Advancing Translational Sciences (NCATS), 2010)", "assay": "qHTS Assay for Lipid Storage Modulators in Drosophila S3 Cells;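 on cell number change: cells counted by Cell Tracker Red CMTPX staining in the red channel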", "conditions": "BODIPY lipid droplet fluorescence, 18-24 h; for cell number change: measured here: cell count max response, cells fed with added oleic acid", "summary_of_the_method": "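Drosophila S3 cells loaded with oleic acid (400 uM, as added) and compounds at several concentrations; lipid droplets imaged by 488-nm laser-scanning cytometry, 500–530 nm intensity and object ratio to cell channel. Percent activity normalized to 20 uM Triacsin C.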", "key": {"[1]": {"conditions": "measured here: cell number channel AC50, cells fed with added oleic acid"}, "[2]": {"conditions": "measured here: lipid fluorescence (Fed channel) AC50, cells fed with added oleic acid"}}, "note": "The list shows a part of the results. The main result of the screen is listed elsewhere. These columns were measured beside it and carry no call. Compounds called inactive in the main read-out are mostly missing here. Potencies come from curve fits of mixed quality, noted in brackets.", "data": [{"smiles": "CC1(C(=O)NCc2ccc(F)cc2)Oc2ccccc2NC1=O", "note": "(stereo unspecified)", "values": [{"measurement": "cell number change", "result": -17.2, "unit": "%"}, {"measurement": "AC50", "setting": "[1]", "result": "6.51 µM [falling, single point]"}, {"measurement": "AC50", "setting": "[2]", "result": "29.1 µM [falling, single point]"}]}, {"smiles": "Cc1cccc(C)c1OCC(=O)Nc1ccc2c(c1)C(=O)NC2=O", "values": [{"measurement": "cell number change", "result": -25.1, "unit": "%"}, {"measurement": "AC50", "setting": "[2]", "result": "29.1 µM [falling, single point]"}]}, {"smiles": "CCOc1nc(Nc2ccc(OC)cc2)nc(OCC)n1", "values": [{"measurement": "cell number change", "result": 78.4, "unit": "%"}, {"measurement": "AC50", "setting": "[1]", "result": "10.3 µM [rising, partial curve]"}]}, {"smiles": "COC(=O)c1[nH]cnc1C(=O)c1ccccc1", "values": [{"measurement": "AC50", "setting": "[1]", "result": "0.0184 µM [falling, full curve]"}, {"measurement": "AC50", "setting": "[2]", "result": "29.1 µM [falling, partial curve]"}]}, {"smiles": "CC(=O)N1CCN(CCN=CC2=C(O)CC(c3cccs3)CC2=O)CC1", "note": "(stereo unspecified)", "values": [{"measurement": "AC50", "setting": "[2]", "result": "0.651 µM [falling, full curve, poor fit]"}]}, {"smiles": "CC(=O)c1c(C)[nH]c(C(=O)Nc2ccccn2)c1C", "values": [{"measurement": "AC50", "setting": "[2]", "result": "10.3 µM [falling, partial curve, poor fit]"}]}, {"smiles": "Cc1ccc(S(=O)(=O)n2nc(C)c(C#N)c2N)cc1", "values": [{"measurement": "cell number change", "result": 2.41, "unit": "%"}, {"measurement": "AC50", "setting": "[2]", "result": "29.1 µM [rising, single point]"}]}, {"smiles": "Cc1cccnc1CC(C)NC(=O)c1cc(COc2cncc(Cl)c2)on1", "note": "(stereo unspecified)", "values": [{"measurement": "cell number change", "result": -26.7, "unit": "%"}, {"measurement": "AC50", "setting": "[2]", "result": "29.1 µM [falling, single point]"}]}, {"smiles": "NC(=O)c1ccc(NC(=O)COC(=O)c2c3c(nc4ccccc24)/C(=C\\c2ccc4c(c2)OCO4)CCC3)cc1", "values": [{"measurement": "cell number change", "result": -19.9, "unit": "%"}, {"measurement": "AC50", "setting": "[2]", "result": "16.4 µM [falling, single point]"}]}, {"smiles": "COc1ccc(C2NC(=O)CS2)cc1OC", "note": "(stereo unspecified)", "values": [{"measurement": "cell number change", "result": 32.3, "unit": "%"}, {"measurement": "AC50", "setting": "[1]", "result": "0.517 µM [rising, full curve, poor fit]"}]}, {"smiles": "CCn1c(-c2c(Cl)c(C)nn2C)n[nH]c1=S", "values": [{"measurement": "cell number change", "result": -5.74, "unit": "%"}, {"measurement": "AC50", "setting": "[1]", "result": "6.51 µM [falling, single point]"}, {"measurement": "AC50", "setting": "[2]", "result": "0.58 µM [falling, full curve]"}]}, {"smiles": "O=C(COC(=O)c1ccccc1NC(=O)c1ccco1)Nc1ccc2c(c1)OCO2", "values": [{"measurement": "cell number change", "result": -8.33, "unit": "%"}]}, {"smiles": "O=[N+]([O-])c1nn(-c2ccc3c(c2)OCCO3)n(O)c1=Nc1ccccc1", "values": [{"measurement": "cell number change", "result": 0.704, "unit": "%"}, {"measurement": "AC50", "setting": "[2]", "result": "29.1 µM [falling, single point]"}]}, {"smiles": "COC(=O)c1sc(N2C(=O)C(O)=C(C(=O)c3ccc(C)o3)C2c2ccc([N+](=O)[O-])cc2)nc1C", "note": "(stereo unspecified)", "values": [{"measurement": "cell number change", "result": -1.62, "unit": "%"}]}, {"smiles": "CC1(NC(=O)Nc2cccc3ccccc23)CCS(=O)(=O)C1", "note": "(stereo unspecified)", "values": [{"measurement": "cell number change", "result": -1.74, "unit": "%"}, {"measurement": "AC50", "setting": "[2]", "result": "29.1 µM [rising, single point]"}]}, {"smiles": "Cc1cc2c(cc1C)NC(c1ccccn1)C1=C(CC(C)(C)CC1=O)N2", "note": "(stereo unspecified)", "values": [{"measurement": "AC50", "setting": "[1]", "result": "6.51 µM [falling, single point]"}]}, {"smiles": "Cn1c(=O)n(C)c2cc([N+](=O)[O-])c(N3CCN(C(=O)c4cccc(Cl)c4)CC3)cc21", "values": [{"measurement": "cell number change", "result": -16, "unit": "%"}, {"measurement": "AC50", "setting": "[2]", "result": "18.4 µM [falling, single point]"}]}]}
